Reference: the supplement of paper PMC10470496
Structures can show the parent of a compound that is named as a salt. This is one part of the list. Many values rest on one well or one pass, so single values are uncertain.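 Three clinical Candida auris isolates (clades III, IV and I) from the CDC resistance isolate bank were grown in RPMI-1640 at 35°C. Growth was background-corrected OD600 relative to same-plate vehicle-only wells. Hits required over 50% inhibition in at least two strains and a plate-corrected B-score above 0.1.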

Experiments:
Assay in all cases: growth relative to vehicle control (OD600 ratio) (fraction); higher = less inhibition
Conditions in all cases: 24 h
C. auris AR-384 = system: C. auris AR-384
C. auris AR-386 = system: C. auris AR-386
C. auris AR-387 = system: C. auris AR-387

SMILES | growth (C. auris AR-384; 1 µM) | growth (C. auris AR-384; 10 µM) | growth (C. auris AR-386; 1 µM) | growth (C. auris AR-386; 10 µM) | growth (C. auris AR-387; 1 µM) | growth (C. auris AR-387; 10 µM)
CCc1cc2c(cc1CC)CC(NC[C@H](O)c1ccc(O)c3[nH]c(=O)ccc13)C2 [Indacaterol Maleate] | 1.01 | 1.43 | 0.84 | 1.32 | 1.17 | 0.91
C[C@@H](O)[C@@H]1NC(=O)[C@H](CCCCN)NC(=O)[C@@H](Cc2c[nH]c3ccccc23)NC(=O)[C@H](Cc2ccccc2)NC(=O)[C@@H](NC(=O)[C@H](N)Cc2ccccc2)CSSC[C@@H](C(=O)N[C@H](CO)[C@@H](C)O)NC1=O [Octreotide Acetate] | 0.86 | 0.39 | 0.62 | 0.77 | 0.95 | 0.72
Cc1ccc(-n2nc(C(C)(C)C)cc2NC(=O)NCc2cc(F)ccc2Oc2ccc3c(cnn3CCO)c2)cc1 [Pexmetinib (ARRY-614)] | 1.14 | 0.91 | 0.87 | 0.79 | 1.09 | 0.99
Cc1cccc(N(C)C(=S)Oc2ccc3ccccc3c2)c1 [Tolnaftate] | 0.74 | 0.53 | 0.76 | 0.68 | 0.66 | 0.67
CC(=O)OCC(=O)[C@@]1(O)[C@H](C)C[C@H]2[C@@H]3CCC4=CC(=O)C=C[C@]4(C)[C@@]3(F)[C@@H](O)C[C@@]21C [Dexamethasone Acetate] | 1.02 | 1.13 | 1.29 | 1.21 | 1.26 | 0.99
O=C1O[C@H](CO)[C@@H](O)[C@H](O)[C@H]1O [Gluconolactone] | 0.92 | 0.95 | 0.88 | 0.79 | 0.71 | 0.8
CCCC(CCC)C(=O)O [Divalproex Sodium] | 1.07 | 1.18 | 1.05 | 0.56 | 0.71 | 0.85
C[C@@H]1O[C@@H](OC[C@H]2O[C@@H](Oc3c(-c4ccc(O)c(O)c4)oc4cc(O)cc(O)c4c3=O)[C@H](O)[C@@H](O)[C@@H]2O)[C@H](O)[C@H](O)[C@H]1O [Rutin] | 0.84 | 0.68 | 0.81 | 0.94 | 0.74 | 0.88
NCCc1ccc(O)c(O)c1 [Dopamine HCl] | 0.94 | 0.99 | 0.76 | 1.03 | 1 | 1.1
OC(CNCC(O)C1CCc2cc(F)ccc2O1)C1CCc2cc(F)ccc2O1 (stereo unspecified) [Nebivolol HCl] | 1.28 | 1.19 | 1.49 | 1.08 | 1.17 | 1.1
C#C[C@]1(O)CC[C@H]2[C@@H]3CCc4cc(O)ccc4[C@H]3CC[C@@]21C [Ethinyl Estradiol] | 0.75 | 1.07 | 1.11 | 0.78 | 0.72 | 0.94
Fc1ccc(C(c2ccc(F)cc2)N2CCN(C/C=C/c3ccccc3)CC2)cc1 [Flunarizine 2HCl] | 0.95 | 1 | 1 | 0.71 | 0.81 | 0.77
O=C(CCCN1CC=C(n2c(=O)[nH]c3ccccc32)CC1)c1ccc(F)cc1 [Droperidol] | 0.82 | 0.82 | 1.08 | 0.83 | 0.82 | 0.69
O=C(O)CCCC[C@@H]1SC[C@@H]2NC(=O)N[C@@H]21 [Biotin (Vitamin B7)] | 0.96 | 0.79 | 1.2 | 0.62 | 0.78 | 0.92
NCCCCC(NC(=O)C1CCCN1C(=O)C1CSSCC(N)C(=O)NC(Cc2ccc(O)cc2)C(=O)NC(Cc2ccccc2)C(=O)NC(CCC(N)=O)C(=O)NC(CC(N)=O)C(=O)N1)C(=O)NCC(N)=O (stereo unspecified) [Lypressin Acetate] | 0.72 | 0.52 | 0.76 | 1 | 0.81 | 0.57
CCC[C@@H]1C[C@@H](C(=O)N[C@@H]([C@H]2O[C@H](SC)[C@H](O)[C@@H](O)[C@H]2O)[C@@H](C)O)N(C)C1 [Lincomycin HCl] | 0.89 | 0.99 | 1.07 | 0.79 | 0.74 | 0.53
Cc1ncc([N+](=O)[O-])n1CC(O)CCl (stereo unspecified) [Ornidazole] | 0.93 | 1.15 | 1.1 | 1.16 | 1.03 | 1.08
OC[C@H]1O[C@@H](c2ccc(Cl)c(Cc3ccc(O[C@H]4CCOC4)cc3)c2)[C@H](O)[C@@H](O)[C@@H]1O | 1.29 | 1.29 | 1.04 | 1.1 | 0.91 | 1.05
CCCCC1=NC2(CCCC2)C(=O)N1Cc1ccc(-c2ccccc2-c2nnn[nH]2)cc1 [Irbesartan] | 0.84 | 0.98 | 0.89 | 0.73 | 0.89 | 0.82
O=C(O)c1cc(=O)[nH]c(=O)[nH]1 [Orotic acid (6-Carboxyuracil)] | 0.84 | 0.9 | 0.91 | 0.63 | 0.93 | 0.94
Cc1ccsc1C(=CCCN1CCC[C@@H](C(=O)O)C1)c1sccc1C [Tiagabine hydrochloride] | 0.76 | 1.03 | 0.95 | 0.89 | 0.82 | 1.05
COc1c(N2CCNC(C)C2)c(F)cc2c(=O)c(C(=O)O)cn(C3CC3)c12 (stereo unspecified) [Gatifloxacin] | 0.82 | 1.13 | 1.22 | 1.33 | 1.14 | 1.25
[I-].[K+] [Potassium Iodide] | 0.77 | 0.75 | 1.07 | 1.07 | 0.75 | 0.9

SMILES | growth (C. auris AR-384; 1 µM) | growth (C. auris AR-384; 10 µM) | growth (C. auris AR-386; 1 µM) | growth (C. auris AR-386; 10 µM) | growth (C. auris AR-387; 1 µM) | growth (C. auris AR-387; 10 µM)
CCS(=O)(=O)N1CC(CC#N)(n2cc(-c3ncnc4[nH]ccc34)cn2)C1 | 0.94 | 0.78 | 0.48 | 0.84 | 0.83 | 1.06
COc1ccc2c(c1)C(=O)N(CCc1ccc(S(=O)(=O)NC(=O)NC3CCCCC3)cc1)C(=O)C2(C)C [Gliquidone] | 0.92 | 1.1 | 1 | 0.95 | 1.19 | 0.99
O.O.O.O.O=C([O-])CC(O)(CC(=O)[O-])C(=O)[O-].[Li+].[Li+].[Li+] [Citric acid trilithium salt tetrahydrate] | 0.9 | 0.83 | 0.96 | 0.9 | 0.92 | 1.03
c1cn2cc(-c3ccc4cn[nH]c4c3)nc(Nc3ccc(N4CCOCC4)cc3)c2n1 [Entospletinib (GS-9973)] | 0.89 | 0.9 | 0.82 | 1.29 | 1.14 | 0.83
Cc1ccc(NC(=O)c2ccc(CN3CCN(C)CC3)cc2)cc1Nc1nc(-c2cccnc2)cs1 [Masitinib (AB1010)] | 1.05 | 0.93 | 1.04 | 1.23 | 0.93 | 1.07
CC1=C(C(=O)O)N2C(=O)[C@@H](NC(=O)[C@H](N)c3ccccc3)[C@H]2SC1 [Cephalexin] | 0.96 | 0.76 | 0.69 | 0.85 | 0.84 | 1.11
CC(C)C[C@H](NC(=O)CNC(=O)c1cc(Cl)ccc1Cl)B1OC(=O)C(CC(=O)O)(CC(=O)O)O1 [Ixazomib Citrate (MLN9708)] | 0.76 | 0.86 | 0.68 | 0.84 | 0.82 | 0.94
O=C(CCCCCCC(=O)Nc1ccccc1)NO [Vorinostat (SAHA, MK0683)] | 0.69 | 0.84 | 0.83 | 1.02 | 0.87 | 0.91
CC(C(=O)O)c1cccc(C(=O)c2ccccc2)c1 (stereo unspecified) [Ketoprofen] | 0.85 | 0.58 | 0.83 | 1.08 | 0.84 | 0.72
CC(=O)O[C@]1(C(C)=O)CC[C@H]2[C@@H]3C=C(C)C4=CC(=O)CC[C@]4(C)[C@H]3CC[C@@]21C [Megestrol Acetate] | 0.95 | 0.76 | 0.76 | 1.04 | 0.72 | 0.88
CNC(=O)[C@H](Cc1ccccc1)NC(=O)[C@H](CC(C)C)[C@H](CSc1cccs1)C(=O)NO [Batimastat (BB-94)] | 1.13 | 1.26 | 1.44 | 1.28 | 1.49 | 1.19
OC(c1cc(C(F)(F)F)nc2c(C(F)(F)F)cccc12)C1CCCCN1 (stereo unspecified) [Mefloquine HCl] | 0.92 | 0.91 | 0.81 | 0.74 | 1.03 | 0.66
Cc1c(Nc2ncccc2C(=O)O)cccc1C(F)(F)F [Flunixin Meglumin] | 0.83 | 0.95 | 1.04 | 0.67 | 0.68 | 0.85
C=C[C@@H]1C[C@]1(NC(=O)[C@@H]1C[C@@H]2CN1C(=O)[C@H](C(C)(C)C)NC(=O)O[C@@H]1C[C@H]1CCCCCc1nc3ccc(OC)cc3nc1O2)C(=O)NS(=O)(=O)C1CC1 [Grazoprevir] | 1.03 | 1.25 | 0.94 | 1.4 | 1.25 | 1.19
C[C@@H]1CN(c2c(F)c(N)c3c(=O)c(C(=O)O)cn(C4CC4)c3c2F)C[C@H](C)N1 [Sparfloxacin] | 0.96 | 0.87 | 1.05 | 1.09 | 1.01 | 0.9
O=C1CN2Cc3c(ccc(Cl)c3Cl)N=C2N1 [Anagrelide HCl] | 0.98 | 0.94 | 0.83 | 0.98 | 0.75 | 0.86
CN(C)CCC[C@@]1(c2ccc(F)cc2)OCc2cc(C#N)ccc21 [Escitalopram Oxalate] | 0.84 | 0.79 | 1.21 | 0.78 | 0.65 | 0.7
C[C@H](CCC(=O)O)[C@H]1CC[C@H]2[C@@H]3CC[C@@H]4C[C@H](O)CC[C@]4(C)[C@H]3C[C@H](O)[C@]12C [Deoxycholic acid] | 1.08 | 1.11 | 0.68 | 0.9 | 0.82 | 0.73
CN[C@@H]1[C@H](O[C@H]2[C@H](O[C@H]3[C@H](O)[C@@H](O)[C@H](NC(=N)N)[C@@H](O)[C@@H]3NC(=N)N)O[C@@H](C)[C@]2(O)CO)O[C@@H](CO)[C@H](O)[C@H]1O [Dihydrostreptomycin sulfate] | 1.36 | 1.45 | 1.06 | 1.41 | 0.89 | 1.17
Nc1cccc2c1C(=O)N(C1CCC(=O)NC1=O)C2=O (stereo unspecified) [Pomalidomide] | 1.09 | 1.08 | 1.14 | 0.64 | 0.92 | 0.7
CN(C)CCCN1c2ccccc2CCc2ccc(Cl)cc21 [Clomipramine HCl] | 0.73 | 0.77 | 0.68 | 0.76 | 1.15 | 0.86
CC(=O)Nc1ccccc1 [Acetanilide] | 0.88 | 0.92 | 0.9 | 0.9 | 1.04 | 1.03
CC(C)(C)C(=O)OCOP(=O)(COCCn1cnc2c(N)ncnc21)OCOC(=O)C(C)(C)C [Adefovir Dipivoxil] | 1.1 | 1.22 | 1.25 | 1.33 | 1.13 | 1.27

Part of the list above, comma-delimited:
SMILES,growth (C. auris AR-384; 1 µM),growth (C. auris AR-384; 10 µM),growth (C. auris AR-386; 1 µM),growth (C. auris AR-386; 10 µM),growth (C. auris AR-387; 1 µM),growth (C. auris AR-387; 10 µM)
C=C[C@@H]1C[C@]1(NC(=O)[C@@H]1C[C@@H]2CN1C(=O)[C@H](C(C)(C)C)NC(=O)O[C@@H]1C[C@H]1CCCCCc1nc3ccc(OC)cc3nc1O2)C(=O)NS(=O)(=O)C1CC1 [Grazoprevir],1.03,1.25,0.94,1.4,1.25,1.19
C[C@@H]1CN(c2c(F)c(N)c3c(=O)c(C(=O)O)cn(C4CC4)c3c2F)C[C@H](C)N1 [Sparfloxacin],0.96,0.87,1.05,1.09,1.01,0.9
